# Reference: patent publication US10149907B2, “Combinations of a photosensitizer with a hydrogen sulfide donor, thioredoxin inhibitor or nitroxide for use in photodynamic therapy” (UNIVERSITY OF EXETER, priority 2014, dated 2018)
# For part of these data: At least one read-out could not be matched to a standard name with certainty. Some entries share one result that the patent states for a list of compounds. For part of these data: At least one compound was matched to its structure with a doubt left.
# Assays:
# A431 cells [1] = assay type: cell-based; conditions: 1 mM MAL 3 h and irradiation (630 nm, 25 J/cm2) in the absence of any SRHD
# Method: A431 cells (human epithelial squamous cell carcinoma cells) were seeded at a density of 1×10^6 cells/ml in T12.5 cm^2 flasks and incubated under 2% O2 for 48 h prior to treatment. After 24 h, the culture medium was replaced and the cells were placed back into the incubators under 2% O2. Following this incubation period, the culture medium was then removed and the flasks were washed with PBS. The cells were then treated with one of the SRHDs and incubated at 2% O2 for 2 h, after which MAL was added to a final concentration of 1 mM and the cells were incubated at 2% O2 for 3 h. This meant in total, the cells were treated with the SRHDs for 5 h.
# Following this final incubation, cell death was analysed by annexin V-FITC and propidium iodide staining in conjunction with flow cytometry.
# Cell death analysis by flow cytometry was carried out using the annexin V-FITC/propidium iodide protocol. This protocol allows a quantitative assessment of cell death, particularly specific modes of death, and involves staining the cells with fluorescein isothiocyanate-conjugated annexin A5 (annexin V-FITC) and propidium iodide (PI). […]
# From each flask being assessed, the old medium was removed and placed into a corresponding individual 15 ml Falcon tube in order to collect any cells that may have detached from the surface. […] The samples were then ready to be assessed by flow cytometry. […]
# A431 cells [2] = conditions: 24 hours
# Method: A431 cells were seeded at a density of 1×10^5 cells/ml in 96 well plates and incubated under 2% O2 for 48 h prior to treatment. After 24 h, the culture medium was replaced and the cells were placed back into the incubators under 2% O2. Following this incubation period, the culture medium was then removed and the plates were washed with PBS. The cells were then treated with 1 mM MAL in the absence or presence of one of the compounds of interest and then incubated again at 2% O2 for 3 h. For experiments carried out with SRHDs, this treatment step was carried out for 5 h at 2% O2. After treatment, the cells were washed with PBS, the culture medium was replaced and the cells were placed back under 2% O2 for 3 h. Following this final incubation, cell death was analysed using the resazurin viability assay.
# Resazurin (7-hydroxy-3H-phenoxazin-3-one 0-oxide) is a weakly fluorescent blue dye used primarily in oxidation-reduction cell viability assays. […]
# A431 cells were seeded into 96 well plates at a density of 1.5*10^6 cells per ml (200 μl per well, 3*10^5 cells) and incubated for 24 h to adhere. […] After a 2 h incubation, the fluorescence of each well was measured (excitation: 571 nm, emission: 585 nm) using a fluorescence plate reader. […]
Compound,cell death (A431 cells [1]) [%],concentration up to which no cytotoxicity (A431 cells [2]) [µM]
"COC(=O)CCC(=O)CN [MAL, methyl aminolaevulinate]",32.8±2.5,
"CC1(C)CCCC(C)(C)N1[O] [TEMPO, 2,2,6,6-tetramethyl-1-piperidinyloxy]",,≤ 5000
CC1(C)CC(=O)CC(C)(C)N1[O] [TEMPONE],,≤ 5000
